Results taken from patent US10111897B2, “Compositions and methods for treating cancer with JAK2 activity” (Duke University, priority 2013, dated 2018).

Test system: PrkA
Settings: 1 μM, 10 μM or 100 μM staurosporine; autophosphorylation and MBP phosphorylation

CN[C@@H]1C[C@H]2O[C@@](C)([C@@H]1OC)n1c3ccccc3c3c4c(c5c6ccccc6n2c5c31)C(=O)NC4 [Staurosporine]
inhibition of PrkA in vitro phosphorylation: inhibits
